{
  "source": "PubChem BioAssay AID206",
  "about": "(DTP/NCI, 2004)",
  "system": "nude mice, HT29 intrarenal xenograft, tumor weight T/C",
  "experiment": "NCI In Vivo Anticancer Drug Screen. Data for tumor model HT29;CX-1 Human Adenocarcinoma (MER+) (intrarenal inoculation) in NU/NU Swiss (nude) mice",
  "conditions": "T/C endpoint: mean tumor weight change, higher T/C = larger tumour",
  "procedure": "The antitumor activity of compounds was measured in mice bearing transplantable tumors. Survival or tumor size were measured and the results are expressed as the measurement made in the treated group (T) divided by the measurement made in the vehicle treated control group (C). The tumor model used in this assay is HT29;CX-1 Human Adenocarcinoma (MER+) (intrarenal inoculation) in NU/NU Swiss (nude) mice",
  "note": "The list does not hold the whole screen: it gathers some chemical classes. Other doses and runs of a compound may be missing. T/C gives the treated animals as a percentage of the vehicle group. Schedule codes are those of the source, read here as Q, the interval in days (D) or hours (H), X, the number of doses. Some T/C values carry the count of animals alive at the toxicity check; where neither a count nor a note follows, no animal had died by that day. Some entries were tested several times; their values stand side by side, smallest first. Some doses have a count of surviving animals in place of a T/C: the source holds a T/C of zero for them, seemingly a mark for toxic or unscored doses. Counts of survivors are from the toxicity check, whose day is not always given; animals may have died later.",
  "data": [
    {"smiles": "ClCCN(CCCl)c1ccccc1", "values": [
      {"measurement": "T/C", "setting": "dose: 3.0 mg/kg/injection, schedule: Q01DX010 (sc), vehicle: saline with Tween-80, evaluated on day 11", "result": "63 and 153 % of control"},
      {"measurement": "T/C", "setting": "dose: 3.13 mg/kg/injection, schedule: Q01DX010 (sc), vehicle: saline with Tween-80, evaluated on day 11", "result": "69 % of control"},
      {"measurement": "T/C", "setting": "dose: 6.0 mg/kg/injection, schedule: Q01DX010 (sc), vehicle: saline with Tween-80, evaluated on day 11", "result": "90 and 93 % of control"},
      {"measurement": "T/C", "setting": "dose: 6.25 mg/kg/injection, schedule: Q01DX010 (sc), vehicle: saline with Tween-80, evaluated on day 11", "result": "87 % of control"},
      {"measurement": "T/C", "setting": "dose: 12.0 mg/kg/injection, schedule: Q01DX010 (sc), vehicle: saline with Tween-80, evaluated on day 11", "result": "71 and 119 % of control"},
      {"measurement": "T/C", "setting": "dose: 12.5 mg/kg/injection, schedule: Q01DX010 (sc), vehicle: saline with Tween-80, evaluated on day 11", "result": "18 % of control"},
      {"measurement": "survivor count", "setting": "dose: 24.0 mg/kg/injection, schedule: Q01DX010 (sc), vehicle: saline with Tween-80", "result": "0 of 6 on day 11 and 2 of 6 on day 11"},
      {"measurement": "survivor count", "setting": "dose: 25.0 mg/kg/injection, schedule: Q01DX010 (sc), vehicle: saline with Tween-80", "result": "0 of 3 on day 11 and 1 of 3 on day 11"},
      {"measurement": "survivor count", "setting": "dose: 50.0 mg/kg/injection, schedule: Q01DX010 (sc), vehicle: saline with Tween-80", "result": "0 of 3 on day 11"},
      {"measurement": "survivor count", "setting": "dose: 100.0 mg/kg/injection, schedule: Q01DX010 (sc), vehicle: saline with Tween-80", "result": "0 of 3 on day 11"},
      {"measurement": "survivor count", "setting": "dose: 200.0 mg/kg/injection, schedule: Q01DX010 (sc), vehicle: saline with Tween-80", "result": "0 of 3 on day 11"}
    ]},
    {"smiles": "CC1=CC(=O)C(N(CCCl)CCCl)=CC1=O", "values": [
      {"measurement": "T/C", "setting": "dose: 0.75 mg/kg/injection, schedule: Q01DX010 (sc), vehicle: Klucel (hydroxypropylcellulose) (HPC), evaluated on day 11", "result": "47 [2 of 2 alive on day 11] and 231 % of control"},
      {"measurement": "T/C", "setting": "dose: 1.5 mg/kg/injection, schedule: Q01DX010 (sc), vehicle: Klucel (hydroxypropylcellulose) (HPC), evaluated on day 11", "result": "32 and 137 % of control [2 of 2 alive on day 11]"}
    ]},
    {"smiles": "Cc1ccc(N(CCBr)CCBr)cc1", "values": [
      {"measurement": "T/C", "setting": "dose: 9.38 mg/kg/injection, schedule: Q04DX004 (sc), vehicle: Klucel (hydroxypropylcellulose) (HPC), evaluated on day 15", "result": "89 % of control"},
      {"measurement": "T/C", "setting": "dose: 18.75 mg/kg/injection, schedule: Q04DX004 (sc), vehicle: Klucel (hydroxypropylcellulose) (HPC), evaluated on day 15", "result": "83 % of control"},
      {"measurement": "T/C", "setting": "dose: 37.5 mg/kg/injection, schedule: Q04DX004 (sc), vehicle: Klucel (hydroxypropylcellulose) (HPC), evaluated on day 15", "result": "32 % of control"},
      {"measurement": "T/C", "setting": "dose: 75.0 mg/kg/injection, schedule: Q04DX004 (sc), vehicle: Klucel (hydroxypropylcellulose) (HPC), evaluated on day 15", "result": "31 % of control [4 of 6 alive on day 15]"}
    ]},
    {"smiles": "C[N+](CCCl)(CCCl)Cc1ccc([N+](=O)[O-])cc1", "values": [
      {"measurement": "T/C", "setting": "dose: 25.0 mg/kg/injection, schedule: Q04DX004 (sc), vehicle: suspension in saline, evaluated on day 15", "result": "135 % of control"}
    ]},
    {"smiles": "O=NN(CCSCCCl)C(=O)NC1CCCCC1", "values": [
      {"measurement": "T/C", "setting": "dose: 75.0 mg/kg/injection, schedule: Q04DX004 (sc), vehicle: saline with Tween-80, evaluated on day 15", "result": "127 % of control"},
      {"measurement": "T/C", "setting": "dose: 300.0 mg/kg/injection, schedule: Q04DX004 (sc), vehicle: saline with Tween-80, evaluated on day 15", "result": "46 % of control"}
    ]}
  ]
}
